In the assay the target is T1, GFP-Rab44 (WT) (mouse) (UniProt Q8CB87).
T1 sequence: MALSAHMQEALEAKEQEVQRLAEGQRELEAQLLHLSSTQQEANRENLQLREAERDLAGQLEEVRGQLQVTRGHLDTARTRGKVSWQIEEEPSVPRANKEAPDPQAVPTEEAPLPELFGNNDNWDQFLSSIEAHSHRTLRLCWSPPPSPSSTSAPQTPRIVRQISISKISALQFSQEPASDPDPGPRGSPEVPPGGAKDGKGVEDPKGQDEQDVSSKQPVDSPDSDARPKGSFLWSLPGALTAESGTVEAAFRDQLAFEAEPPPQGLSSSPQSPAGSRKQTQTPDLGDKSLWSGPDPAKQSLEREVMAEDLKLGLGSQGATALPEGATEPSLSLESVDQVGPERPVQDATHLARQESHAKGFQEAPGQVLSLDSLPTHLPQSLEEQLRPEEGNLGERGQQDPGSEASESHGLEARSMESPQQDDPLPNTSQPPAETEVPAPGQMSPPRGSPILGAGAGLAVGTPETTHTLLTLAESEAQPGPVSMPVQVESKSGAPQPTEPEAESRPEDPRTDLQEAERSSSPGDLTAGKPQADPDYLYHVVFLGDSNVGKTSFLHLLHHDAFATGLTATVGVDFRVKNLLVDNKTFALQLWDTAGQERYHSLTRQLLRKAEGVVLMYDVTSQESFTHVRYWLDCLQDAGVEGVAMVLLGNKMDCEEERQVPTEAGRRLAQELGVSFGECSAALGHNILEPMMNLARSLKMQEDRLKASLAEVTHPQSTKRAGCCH
In words: affinity purification with mass spectrometry; GTP-specific pull-down: RAW-D lysate treated with ALP (25 units) on ice 1 h, anti-GFP mAb agarose overnight at 4 °C, five washes with PBS, elution with 5 mM GTP; SDS-PAGE, CBB staining, bands identified by MALDI-TOF-MS (Mascot).

Chains of the proteins cited; added tags and fusions are not shown.
UniProt Q9WUM4: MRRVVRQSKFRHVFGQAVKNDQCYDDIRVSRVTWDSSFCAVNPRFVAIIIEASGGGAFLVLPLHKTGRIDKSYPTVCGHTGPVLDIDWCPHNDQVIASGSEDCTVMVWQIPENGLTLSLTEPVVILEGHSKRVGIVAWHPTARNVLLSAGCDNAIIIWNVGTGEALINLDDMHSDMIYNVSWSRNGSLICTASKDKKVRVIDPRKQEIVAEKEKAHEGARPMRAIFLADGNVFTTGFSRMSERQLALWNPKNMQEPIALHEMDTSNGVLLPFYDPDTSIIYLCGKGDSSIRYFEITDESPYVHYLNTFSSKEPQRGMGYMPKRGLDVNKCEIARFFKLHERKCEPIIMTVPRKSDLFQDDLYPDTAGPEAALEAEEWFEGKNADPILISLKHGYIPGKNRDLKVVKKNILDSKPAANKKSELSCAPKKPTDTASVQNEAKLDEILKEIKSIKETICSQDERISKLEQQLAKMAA
UniProt P21107: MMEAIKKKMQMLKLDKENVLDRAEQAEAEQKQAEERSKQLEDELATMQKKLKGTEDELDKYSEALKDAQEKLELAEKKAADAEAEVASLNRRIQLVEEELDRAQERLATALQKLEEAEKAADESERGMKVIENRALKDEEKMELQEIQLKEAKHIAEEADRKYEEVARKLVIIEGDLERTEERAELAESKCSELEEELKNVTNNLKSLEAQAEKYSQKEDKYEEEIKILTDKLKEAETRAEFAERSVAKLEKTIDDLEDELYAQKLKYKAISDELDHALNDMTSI

These are yes or no findings as the source states them, for the method shown. In cells and extracts the contact can be indirect. A yes stands for co-enrichment or nearness to the bait. Other partners may have been found. Tags and fused reporters may be left off the sequences shown.

With Coronin1C (from UniProt Q9WUM4 1-474), the binding result is on record as “binds”. Turning to “Tropomyosin α3 chain (from UniProt P21107 1-285)”, the binding result is on record as “binds”.
